In PubChem BioAssay AID248 (DTP/NCI, 2004):
The list does not hold the whole screen: it gathers tests that were run many times, whatever their T/C, doses with no T/C, and many T/C values between a quarter and a half above the control. Other doses and runs of a compound stand elsewhere. T/C: endpoint of the treated group in % of that of the vehicle group. Some entries give survivors of the animals treated and no T/C: the source holds a T/C of zero for them, seemingly a mark for toxic or unscored doses. Some survivor counts are full or nearly so, which does not show that the dose was tolerated: the source hardly ever lists a survival T/C far under the control, and the zero likely stands for such cases as well. Survivors were counted at the toxicity check, usually on the fifth day, unless a day is given; later deaths do not show. Schedule codes are those of the source, taken here to give the interval after Q, in days (D) or hours (H), and the number of doses after X. Some schedules carry Z or #; the key to these is not given. Some entries were tested several times; the results are listed from low to high. For survival time, this PubChem deposit counts one and a half times the control or more as active, and values a quarter to a half above the control carry no call in these data; other NCI protocols may use other cut-offs. Some T/C values are followed by the survivors on the day toxicity was checked, most often the fifth; without a count, all were alive then.

Test system: L1210 leukemia ip in BDF1 mice, survival T/C
Assay: NCI In Vivo Anticancer Drug Screen. Data for tumor model L1210 Leukemia (intraperitoneal) in B6D2F1 (BDF1) mice
Settings: T/C endpoint: mean survival time, higher T/C = longer survival

COC12C(COC(N)=O)C3=C(C(=O)C(C)=C(N)C3=O)N1CC1C2N1C (stereo unspecified)
T/C (dose: 17.0 mg/kg/injection, schedule: Q01DX001 (ip), vehicle: carboxymethylcellulose (CMC)): 131 % of control
T/C (dose: 18.0 mg/kg/injection, schedule: Q01DX009 (oral), vehicle: saline): 140 % of control
T/C (dose: 20.0 mg/kg/injection, schedule: Q01DX001 (ip), vehicle: saline, evaluated on day 39): 132 % of control
T/C (dose: 20.0 mg/kg/injection, schedule: Q01DX001 (ip), vehicle: saline, evaluated on day 40): 135 % of control
T/C (dose: 20.0 mg/kg/injection, schedule: Q01DX001 (ip), vehicle: saline, evaluated on day 46): 140 % of control
T/C (dose: 20.0 mg/kg/injection, schedule: Q01DX Z (ip), vehicle: carboxymethylcellulose (CMC)): 130 and 145 % of control
T/C (dose: 20.0 mg/kg/injection, schedule: Q## X032 (ip), vehicle: saline): 126 % of control
T/C (dose: 24.0 mg/kg/injection, schedule: Q01DX009 (oral), vehicle: saline): 130 % of control
T/C (dose: 24.0 mg/kg/injection, schedule: Q02DX008 (ip), vehicle: saline): 134 % of control
T/C (dose: 24.0 mg/kg/injection, schedule: Q## X008 (ip), vehicle: saline): 136 % of control
T/C (dose: 24.0 mg/kg/injection, schedule: Q## X032 (ip), vehicle: saline): 129 [9 of 10 alive] and 133 % of control
T/C (dose: 24.0 mg/kg/injection, schedule: Q## X040 (ip), vehicle: saline): 125 % of control
T/C (dose: 25.0 mg/kg/injection, schedule: Q01DX001 (ip), vehicle: saline, evaluated on day 30): 139 and 143 % of control
T/C (dose: 25.0 mg/kg/injection, schedule: Q01DX001 (ip), vehicle: saline, evaluated on day 46): 142 % of control
survivor count (dose: 30.0 mg/kg/injection, schedule: Q01DX Z (ip), vehicle: carboxymethylcellulose (CMC)): 6 of 6
survivor count (dose: 32.0 mg/kg/injection, schedule: Q01DX009 (ip), vehicle: Klucel (hydroxypropylcellulose) (HPC)): 10 of 10
T/C (dose: 32.0 mg/kg/injection, schedule: Q## X008 (ip), vehicle: saline): 126 % of control
T/C (dose: 32.0 mg/kg/injection, schedule: Q## X024 (ip), vehicle: saline): 144 % of control
T/C (dose: 32.5 mg/kg/injection, schedule: Q01DX001 (ip), vehicle: saline): 125 % of control
T/C (dose: 40.0 mg/kg/injection, schedule: Q01DX001 (ip), vehicle: saline, evaluated on day 30): 125 and 148 % of control
T/C (dose: 40.0 mg/kg/injection, schedule: Q01DX001 (ip), vehicle: saline, evaluated on day 39): 164 % of control
T/C (dose: 40.0 mg/kg/injection, schedule: Q01DX001 (ip), vehicle: saline, evaluated on day 40): 154 % of control
T/C (dose: 40.0 mg/kg/injection, schedule: Q01DX001 (ip), vehicle: saline, evaluated on day 46): 156 and 204 % of control
T/C (dose: 40.0 mg/kg/injection, schedule: Q01DX001 (ip), vehicle: saline, run until all animals had died): 165 % of control
T/C (dose: 40.0 mg/kg/injection, schedule: Q01DX001 (sc), vehicle: saline): 128 % of control
T/C (dose: 40.0 mg/kg/injection, schedule: Q## X032 (ip), vehicle: saline): 145 % of control
T/C (dose: 50.0 mg/kg/injection, schedule: Q01DX001 (ip), vehicle: saline, evaluated on day 30): 87 and 110 % of control
T/C (dose: 50.0 mg/kg/injection, schedule: Q01DX001 (ip), vehicle: saline, evaluated on day 46): 134 % of control
T/C (dose: 50.0 mg/kg/injection, schedule: Q01DX001 (ip), vehicle: saline, run until all animals had died): 154 and 168 % of control
T/C (dose: 60.0 mg/kg/injection, schedule: Q01DX001 (ip), vehicle: saline, evaluated on day 39): 146 % of control
T/C (dose: 60.0 mg/kg/injection, schedule: Q01DX001 (ip), vehicle: saline, evaluated on day 40): 129 % of control
T/C (dose: 60.0 mg/kg/injection, schedule: Q01DX001 (ip), vehicle: saline, evaluated on day 46): 124 % of control
T/C (dose: 60.0 mg/kg/injection, schedule: Q01DX001 (ip), vehicle: saline, run until all animals had died): 132 % of control
T/C (dose: 60.0 mg/kg/injection, schedule: Q01DX001 (sc), vehicle: saline): 130 % of control
survivor count (dose: 60.0 mg/kg/injection, schedule: Q## X003 (ip), vehicle: saline): 9 of 10
T/C (dose: 64.0 mg/kg/injection, schedule: Q## X016 (ip), vehicle: saline): 131 % of control
T/C (dose: 90.0 mg/kg/injection, schedule: Q01DX001 (ip), vehicle: saline, evaluated on day 39): 90 % of control
T/C (dose: 90.0 mg/kg/injection, schedule: Q01DX001 (ip), vehicle: saline, evaluated on day 40): 114 % of control [9 of 10 alive]
T/C (dose: 90.0 mg/kg/injection, schedule: Q01DX001 (ip), vehicle: saline, evaluated on day 46): 108 % of control [9 of 10 alive]
survivor count (dose: 90.0 mg/kg/injection, schedule: Q01DX001 (ip), vehicle: saline): 4 of 6
T/C (dose: 90.0 mg/kg/injection, schedule: Q01DX001 (oral), vehicle: saline): 140 % of control
T/C (dose: 135.0 mg/kg/injection, schedule: Q01DX001 (oral), vehicle: saline): 137 % of control
survivor count (dose: 180.0 mg/kg/injection, schedule: Q01DX001 (ip), vehicle: saline): 5 of 10 and 5 of 6
survivor count (dose: 200.0 mg/kg/injection, schedule: Q01DX001 (ip), vehicle: saline): 6 of 6
survivor count (dose: 270.0 mg/kg/injection, schedule: Q01DX001 (oral), vehicle: saline): 10 of 10
survivor count (dose: 400.0 mg/kg/injection, schedule: Q01DX001 (ip), vehicle: saline): 0 of 6
